This is one part of the list.
Key:
Assay in all cases: log2 fold change, soluble protein after heating vs DMSO (PISA); higher = thermal stabilisation; K562 lysate, 10 uM; active = over 0.2 and 3.5 SD of the protein, either way, in both replicates (recomputed)
erlotinib = compound: C#Cc1cccc(Nc2ncnc3cc(OCCOC)c(OCCOC)cc23)c1 [erlotinib]
In short: (§1)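 Quantification was by TMTpro 16plex LC-MS/MS with equalised channel sums, applied to the supernatant after 21,000xg for 90 min. Samples were crude K562 extract at 1 mg/mL protein in PBS pH 7.4 with 1 mM MgCl2, treated with 10 μM compound for 30 min, heated for 3 min across 48°C-58°C, pooled and brought to 0.5% NP-40 at 4°C. Values are log-two fold changes in thermal stability relative to solvent controls, from duplicates.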

Chains of the proteins cited; added tags and fusions are not shown. Lines headed by an entry give the natural chain unless they say otherwise; changes in a name come on top.
UniProt Q9Y592: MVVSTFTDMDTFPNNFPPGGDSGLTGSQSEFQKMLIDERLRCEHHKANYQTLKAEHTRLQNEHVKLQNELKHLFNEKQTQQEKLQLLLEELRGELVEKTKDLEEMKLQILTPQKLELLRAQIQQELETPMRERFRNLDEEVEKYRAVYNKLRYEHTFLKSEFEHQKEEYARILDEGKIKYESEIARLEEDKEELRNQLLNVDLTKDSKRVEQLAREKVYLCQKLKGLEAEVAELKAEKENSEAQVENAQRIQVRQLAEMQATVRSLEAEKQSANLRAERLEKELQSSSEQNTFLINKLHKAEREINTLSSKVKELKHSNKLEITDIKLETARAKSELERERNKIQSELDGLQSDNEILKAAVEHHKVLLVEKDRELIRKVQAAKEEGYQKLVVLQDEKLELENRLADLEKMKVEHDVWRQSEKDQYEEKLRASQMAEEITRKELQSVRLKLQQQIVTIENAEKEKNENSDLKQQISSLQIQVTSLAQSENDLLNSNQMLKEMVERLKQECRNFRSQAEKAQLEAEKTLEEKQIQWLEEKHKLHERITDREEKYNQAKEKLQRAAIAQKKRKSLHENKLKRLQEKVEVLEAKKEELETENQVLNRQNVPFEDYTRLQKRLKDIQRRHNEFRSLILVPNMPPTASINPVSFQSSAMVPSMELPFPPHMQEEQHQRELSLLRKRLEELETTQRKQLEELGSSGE
UniProt A8MTT3: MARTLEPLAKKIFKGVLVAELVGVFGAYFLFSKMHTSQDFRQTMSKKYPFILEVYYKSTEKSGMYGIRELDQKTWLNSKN
UniProt P08603, whole entry, looked up: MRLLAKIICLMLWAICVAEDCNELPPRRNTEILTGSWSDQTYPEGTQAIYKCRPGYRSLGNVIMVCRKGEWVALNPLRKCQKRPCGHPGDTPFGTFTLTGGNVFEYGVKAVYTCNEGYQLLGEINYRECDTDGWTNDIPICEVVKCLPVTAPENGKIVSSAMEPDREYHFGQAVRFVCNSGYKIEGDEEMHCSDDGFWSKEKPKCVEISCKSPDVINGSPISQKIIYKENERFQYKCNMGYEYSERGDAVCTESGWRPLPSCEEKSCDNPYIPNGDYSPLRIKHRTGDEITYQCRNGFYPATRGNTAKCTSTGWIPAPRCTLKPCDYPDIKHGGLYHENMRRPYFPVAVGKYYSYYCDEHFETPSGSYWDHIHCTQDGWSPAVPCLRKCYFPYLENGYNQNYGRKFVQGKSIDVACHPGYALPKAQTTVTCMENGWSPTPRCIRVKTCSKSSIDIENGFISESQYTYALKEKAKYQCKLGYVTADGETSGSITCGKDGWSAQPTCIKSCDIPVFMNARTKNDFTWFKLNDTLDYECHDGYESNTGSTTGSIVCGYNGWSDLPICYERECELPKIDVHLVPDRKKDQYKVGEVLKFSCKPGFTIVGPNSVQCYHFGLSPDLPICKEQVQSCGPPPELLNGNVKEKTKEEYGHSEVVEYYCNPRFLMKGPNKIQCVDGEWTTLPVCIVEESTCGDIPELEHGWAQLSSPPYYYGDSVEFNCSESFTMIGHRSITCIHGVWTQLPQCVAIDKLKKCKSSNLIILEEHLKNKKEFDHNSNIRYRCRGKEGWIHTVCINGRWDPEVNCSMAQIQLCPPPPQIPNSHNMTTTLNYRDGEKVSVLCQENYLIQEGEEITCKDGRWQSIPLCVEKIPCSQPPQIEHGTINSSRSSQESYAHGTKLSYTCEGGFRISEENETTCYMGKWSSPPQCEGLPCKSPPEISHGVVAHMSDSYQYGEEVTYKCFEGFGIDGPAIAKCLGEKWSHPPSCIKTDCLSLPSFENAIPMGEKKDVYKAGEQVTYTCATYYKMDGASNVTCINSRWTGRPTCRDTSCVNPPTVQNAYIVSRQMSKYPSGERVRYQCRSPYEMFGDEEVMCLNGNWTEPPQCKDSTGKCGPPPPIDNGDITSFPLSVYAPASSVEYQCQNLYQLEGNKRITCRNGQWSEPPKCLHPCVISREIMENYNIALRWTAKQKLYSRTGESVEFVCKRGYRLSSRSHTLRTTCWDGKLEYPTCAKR
UniProt Q9NYV4, whole entry, looked up: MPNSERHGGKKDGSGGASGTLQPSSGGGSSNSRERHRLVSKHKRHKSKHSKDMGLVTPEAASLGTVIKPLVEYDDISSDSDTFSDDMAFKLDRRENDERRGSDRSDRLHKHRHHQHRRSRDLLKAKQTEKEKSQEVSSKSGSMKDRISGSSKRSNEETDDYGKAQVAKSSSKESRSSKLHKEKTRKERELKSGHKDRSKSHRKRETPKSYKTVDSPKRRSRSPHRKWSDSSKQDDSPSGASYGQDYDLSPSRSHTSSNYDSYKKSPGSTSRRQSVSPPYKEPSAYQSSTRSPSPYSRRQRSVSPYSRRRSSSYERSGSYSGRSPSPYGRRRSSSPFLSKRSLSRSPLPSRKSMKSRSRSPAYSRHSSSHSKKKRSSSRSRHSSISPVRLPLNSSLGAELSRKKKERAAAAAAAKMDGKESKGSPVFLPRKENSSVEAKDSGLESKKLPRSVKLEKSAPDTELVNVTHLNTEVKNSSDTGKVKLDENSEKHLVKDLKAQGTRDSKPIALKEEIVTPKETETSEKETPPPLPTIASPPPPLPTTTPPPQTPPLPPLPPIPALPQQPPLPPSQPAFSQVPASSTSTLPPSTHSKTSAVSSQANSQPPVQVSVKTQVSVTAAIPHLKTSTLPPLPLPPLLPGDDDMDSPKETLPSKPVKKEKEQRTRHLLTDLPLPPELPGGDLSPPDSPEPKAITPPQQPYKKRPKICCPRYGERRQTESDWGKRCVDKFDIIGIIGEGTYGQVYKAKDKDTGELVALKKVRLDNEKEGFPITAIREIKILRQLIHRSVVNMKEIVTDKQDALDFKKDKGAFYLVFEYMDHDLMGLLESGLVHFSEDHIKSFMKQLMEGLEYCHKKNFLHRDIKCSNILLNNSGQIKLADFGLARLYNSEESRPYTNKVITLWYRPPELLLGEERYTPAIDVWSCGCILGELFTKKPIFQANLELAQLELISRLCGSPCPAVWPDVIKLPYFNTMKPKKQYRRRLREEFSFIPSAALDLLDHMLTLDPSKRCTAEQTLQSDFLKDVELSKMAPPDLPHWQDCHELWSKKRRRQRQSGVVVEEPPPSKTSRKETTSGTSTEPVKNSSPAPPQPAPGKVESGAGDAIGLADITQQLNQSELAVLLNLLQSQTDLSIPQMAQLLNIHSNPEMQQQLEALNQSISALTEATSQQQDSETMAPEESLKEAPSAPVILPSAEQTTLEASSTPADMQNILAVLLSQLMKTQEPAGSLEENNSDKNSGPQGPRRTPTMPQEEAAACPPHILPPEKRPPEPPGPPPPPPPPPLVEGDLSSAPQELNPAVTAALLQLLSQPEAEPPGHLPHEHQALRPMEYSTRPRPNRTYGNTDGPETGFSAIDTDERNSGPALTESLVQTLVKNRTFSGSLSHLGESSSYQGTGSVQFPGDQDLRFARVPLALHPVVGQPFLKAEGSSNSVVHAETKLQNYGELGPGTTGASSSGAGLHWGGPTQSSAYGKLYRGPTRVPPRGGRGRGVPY
UniProt Q8N960: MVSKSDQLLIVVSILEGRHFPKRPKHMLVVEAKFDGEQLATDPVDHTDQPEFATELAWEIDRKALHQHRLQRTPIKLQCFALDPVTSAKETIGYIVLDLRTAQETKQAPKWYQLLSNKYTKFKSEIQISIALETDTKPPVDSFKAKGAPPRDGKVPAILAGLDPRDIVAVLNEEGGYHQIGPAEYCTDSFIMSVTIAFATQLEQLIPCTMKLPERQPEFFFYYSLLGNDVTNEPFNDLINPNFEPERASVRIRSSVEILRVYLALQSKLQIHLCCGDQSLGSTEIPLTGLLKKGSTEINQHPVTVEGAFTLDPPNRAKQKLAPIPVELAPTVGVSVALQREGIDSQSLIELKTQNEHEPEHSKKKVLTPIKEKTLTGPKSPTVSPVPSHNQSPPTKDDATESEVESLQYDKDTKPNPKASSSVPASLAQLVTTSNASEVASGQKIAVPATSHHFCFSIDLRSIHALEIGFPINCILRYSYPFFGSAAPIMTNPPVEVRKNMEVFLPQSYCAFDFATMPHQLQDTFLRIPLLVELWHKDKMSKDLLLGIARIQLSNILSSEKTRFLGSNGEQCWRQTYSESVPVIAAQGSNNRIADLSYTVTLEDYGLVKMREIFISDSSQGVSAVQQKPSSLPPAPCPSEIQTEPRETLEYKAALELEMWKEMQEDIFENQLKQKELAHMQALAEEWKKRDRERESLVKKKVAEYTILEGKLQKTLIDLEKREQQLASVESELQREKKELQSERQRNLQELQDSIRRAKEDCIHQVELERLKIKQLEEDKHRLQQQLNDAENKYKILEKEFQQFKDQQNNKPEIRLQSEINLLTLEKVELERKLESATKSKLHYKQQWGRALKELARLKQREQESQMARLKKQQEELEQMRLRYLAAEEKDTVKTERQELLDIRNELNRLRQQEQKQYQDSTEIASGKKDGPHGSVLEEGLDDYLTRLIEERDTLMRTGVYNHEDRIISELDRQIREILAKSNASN
UniProt P11802: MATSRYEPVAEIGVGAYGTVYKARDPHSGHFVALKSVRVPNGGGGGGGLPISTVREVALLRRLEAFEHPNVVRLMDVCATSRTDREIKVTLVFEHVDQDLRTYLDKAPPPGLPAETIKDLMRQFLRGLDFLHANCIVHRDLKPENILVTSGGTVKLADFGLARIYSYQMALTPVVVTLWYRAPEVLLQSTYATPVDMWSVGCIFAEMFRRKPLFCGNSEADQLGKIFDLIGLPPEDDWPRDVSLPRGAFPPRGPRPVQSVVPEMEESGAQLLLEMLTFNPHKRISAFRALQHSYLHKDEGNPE
UniProt Q8IW35: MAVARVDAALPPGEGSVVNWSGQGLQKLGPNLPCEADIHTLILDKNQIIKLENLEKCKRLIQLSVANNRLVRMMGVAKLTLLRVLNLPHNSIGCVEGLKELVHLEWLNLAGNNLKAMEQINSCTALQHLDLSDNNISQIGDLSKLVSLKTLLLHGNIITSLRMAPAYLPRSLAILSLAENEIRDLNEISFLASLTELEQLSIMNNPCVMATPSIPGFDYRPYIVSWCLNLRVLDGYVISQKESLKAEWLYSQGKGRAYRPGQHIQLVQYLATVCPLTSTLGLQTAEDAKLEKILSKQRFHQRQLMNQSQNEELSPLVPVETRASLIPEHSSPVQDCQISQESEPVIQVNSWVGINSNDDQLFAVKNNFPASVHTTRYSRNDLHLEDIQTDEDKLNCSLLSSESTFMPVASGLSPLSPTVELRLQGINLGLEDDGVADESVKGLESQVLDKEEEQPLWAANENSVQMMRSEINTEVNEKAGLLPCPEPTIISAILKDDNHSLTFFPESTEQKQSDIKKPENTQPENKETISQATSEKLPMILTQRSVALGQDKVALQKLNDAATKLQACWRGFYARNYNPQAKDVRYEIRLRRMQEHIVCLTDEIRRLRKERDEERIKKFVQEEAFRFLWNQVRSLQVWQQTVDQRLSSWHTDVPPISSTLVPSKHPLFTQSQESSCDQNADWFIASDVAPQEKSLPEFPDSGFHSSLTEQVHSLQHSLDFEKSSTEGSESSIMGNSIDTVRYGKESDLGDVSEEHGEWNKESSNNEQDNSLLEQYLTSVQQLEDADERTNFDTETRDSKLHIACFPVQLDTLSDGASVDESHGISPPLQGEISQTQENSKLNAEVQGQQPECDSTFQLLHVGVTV
UniProt Q9Y5P4: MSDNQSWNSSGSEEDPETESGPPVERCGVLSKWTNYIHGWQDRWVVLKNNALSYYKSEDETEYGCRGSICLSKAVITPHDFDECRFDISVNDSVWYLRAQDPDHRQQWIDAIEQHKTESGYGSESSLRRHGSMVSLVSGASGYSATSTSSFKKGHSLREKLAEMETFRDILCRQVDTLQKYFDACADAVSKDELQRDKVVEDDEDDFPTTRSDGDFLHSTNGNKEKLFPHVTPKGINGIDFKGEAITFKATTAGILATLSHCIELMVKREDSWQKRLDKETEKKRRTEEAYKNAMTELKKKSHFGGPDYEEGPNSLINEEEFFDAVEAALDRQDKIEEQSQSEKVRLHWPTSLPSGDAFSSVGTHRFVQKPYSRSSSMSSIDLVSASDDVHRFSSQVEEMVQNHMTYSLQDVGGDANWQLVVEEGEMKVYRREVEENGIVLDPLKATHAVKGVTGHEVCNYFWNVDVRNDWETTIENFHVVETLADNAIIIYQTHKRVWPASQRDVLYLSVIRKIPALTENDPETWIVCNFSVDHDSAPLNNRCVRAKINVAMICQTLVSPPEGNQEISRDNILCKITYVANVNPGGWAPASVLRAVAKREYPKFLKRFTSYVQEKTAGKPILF
UniProt Q9BU64: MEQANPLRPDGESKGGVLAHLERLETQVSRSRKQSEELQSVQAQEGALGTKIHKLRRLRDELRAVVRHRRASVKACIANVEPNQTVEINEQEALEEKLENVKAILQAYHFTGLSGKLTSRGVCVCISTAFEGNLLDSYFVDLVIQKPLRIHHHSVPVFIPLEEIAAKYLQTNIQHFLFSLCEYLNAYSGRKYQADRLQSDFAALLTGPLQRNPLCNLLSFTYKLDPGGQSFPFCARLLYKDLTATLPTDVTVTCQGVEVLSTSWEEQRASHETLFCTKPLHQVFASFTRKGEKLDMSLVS

[1] = compound: C/C(=N\NC(=O)C1=CC(=CC=C1)S(=O)(=O)N2CCOCC2)/C3=C(C=CC(=C3)Cl)O
In short: as §1

[2] = compound: C1=CC(=CC=C1C2=NC3=C(N2)C=C(C=C3)C(=O)N)OC4=CC=C(C=C4)Cl
In short: as §1

[3] = compound: C1=CC2=C(C=CC(=C2)/C=C\3/C(=O)NC(=NCC4=CC=CS4)S3)N=C1
In short: as §1

[4] = compound: C1=CC=C(C=C1)C2=NC(=C(N2)C3=CC=NC=C3)C4=CC(=C(C=C4)Cl)O
In short: as §1

[5] = compound: C1=CC=C2C(=C1)C3=NNC4=CC=CC(=C43)C2=O
In short: as §1

[6] = compound: C1CCN(C1)C(=O)NC2=CC=CC(=C2)NC3=NC=C(C(=N3)NCCC4=CN=CN4)Br
In short: as §1

[7] = compound: C1CN(CCC1(CC2=CC=C(C=C2)Cl)N)C3=NC=NC4=C3C=CN4
In short: as §1

IRAK-1-4 Inhibitor I = compound: C1COCCN1CCN2C3=CC=CC=C3N=C2NC(=O)C4=CC(=CC=C4)[N+](=O)[O-] [IRAK-1-4 Inhibitor I]
In short: as §1

[8] = compound: C1=CC2=NC=CN=C2C=C1/C=C/3\C(=O)NC(=O)S3
In short: as §1

Measured: log2 fold change

CFAP47 (UniProt Q6ZTR5)
inactive: erlotinib 0.069 | [1] 0.325 | [2] 0.106 | [3] -0.193 | [4] 0.078 | [5] -0.183 | [6] -0.166 | [7] -0.174 | IRAK-1-4 Inhibitor I 0.154

CEP83 (UniProt Q9Y592)
inactive: erlotinib 0.092 | [1] -0.025 | [2] 0.206 | [3] -0.048 | [4] 0.049 | [5] -0.201 | IRAK-1-4 Inhibitor I 0.086

CEBPZOS (UniProt A8MTT3)
inactive: erlotinib -0.038 | [1] 0.013 | [2] 0.004 | [3] 0.003 | [4] -0.014 | [5] 0.006 | [6] -0.011 | [7] 0.005 | IRAK-1-4 Inhibitor I -0.015

CELF2 isoform 3 (UniProt O95319)
inactive: erlotinib -0.111 | [1] -0.041 | [2] -0.041 | [3] -0.004 | [8] -0.024 | [4] 0.007 | [5] -0.012 | [6] -0.053 | [7] 0.041 | IRAK-1-4 Inhibitor I -0.029

CDR2 (UniProt Q01850)
inactive: erlotinib 0.012 | [1] -0.014 | [2] -0.01 | [3] 0.006 | [8] 0.045 | [4] 0.053 | [5] -0.051 | [6] -0.058 | [7] -0.027 | IRAK-1-4 Inhibitor I -0.04

CEBPB (UniProt P17676)
inactive: erlotinib -0.034 | [1] 0.073 | [2] 0.053 | [3] -0.021 | [8] -0.033 | [4] 0.019 | [5] -0.002 | [6] -0.001 | [7] -0.002 | IRAK-1-4 Inhibitor I 0.052

CEP78 isoform 2 (UniProt Q5JTW2)
inactive: erlotinib 0.204 | [2] -0.062

CENPJ (UniProt Q9HC77)
inactive: erlotinib 0.013 | [1] -0.031 | [2] 0.105 | [3] -0.004 | [8] -0.046 | [4] -0.003 | [5] 0.035 | [6] -0.254 | [7] 0.136 | IRAK-1-4 Inhibitor I -0.011

CDK8 (UniProt P49336)
inactive: erlotinib -0.012 | [1] -0.059 | [2] 0.028 | [3] -0.128 | [8] 0.068 | [4] 0.004 | [5] 0.128 | IRAK-1-4 Inhibitor I 0.029

CDYL (UniProt Q9Y232)
inactive: erlotinib -0.033 | [1] -0.06 | [2] 0.095 | [3] 0.099 | [8] -0.001 | [4] 0.01 | [5] -0.01 | [6] 0.011 | [7] 0.029 | IRAK-1-4 Inhibitor I 0

CFH (UniProt P08603)
inactive: erlotinib 0.019 | [1] 0.202 | [2] 0.025 | [3] 0.019 | [8] -0.096 | [4] 0.054 | [5] -0.048 | [6] -0.09 | [7] 0.03 | IRAK-1-4 Inhibitor I -0.046

CDC37 (UniProt K7EKQ2)
inactive: erlotinib 0.053 | [1] -0.026 | [2] 0.012 | [3] 0.075 | [4] -0.007 | [5] -0.124 | IRAK-1-4 Inhibitor I 0.079

CEP44 (UniProt Q9C0F1)
inactive: erlotinib -0.016 | [1] 0.005 | [2] 0.002 | [3] 0.031 | [8] -0.006 | [4] 0.012 | [5] 0.075 | [6] 0.017 | [7] 0.007 | IRAK-1-4 Inhibitor I 0.026

CFAP97 (UniProt Q9P2B7)
inactive: erlotinib -0.078 | [1] -0.222 | [2] -0.058 | [3] 0.139 | [4] 0.025 | [5] -0.455 | IRAK-1-4 Inhibitor I 0.024

CDKAL1 (UniProt Q5VV42)
inactive: erlotinib -0.019 | [1] 0.009 | [2] 0.001 | [3] 0.065 | [8] -0.03 | [4] 0.023 | [5] -0.037 | [6] -0.004 | [7] 0.027 | IRAK-1-4 Inhibitor I -0.024

CDCA2 (UniProt Q69YH5)
inactive: erlotinib 0.094 | [1] -0.038 | [2] 0.167 | [3] -0.051 | [8] -0.017 | [4] -0.044 | [5] -0.146 | [6] -0.131 | [7] 0.056 | IRAK-1-4 Inhibitor I 0.064

CD82 (UniProt P27701)
inactive: erlotinib -0.019 | [1] -0.044 | [2] -0.019 | [3] 0.035 | [4] 0.001 | [5] -0.097 | IRAK-1-4 Inhibitor I -0.004

CDK2 (UniProt P24941)
inactive: erlotinib -0.026 | [1] -0.152 | [2] 0.051 | [8] -0.003 | [4] 0.008 | [5] 0.237 | [6] 0.135 | [7] 0.004 | IRAK-1-4 Inhibitor I 0.014

CDK12 (UniProt Q9NYV4)
inactive: erlotinib 0.018 | [1] -0.063 | [2] 0.036 | [3] -0.02 | [8] -0.053 | [4] 0.005 | [5] 0.049 | [6] 0.075 | [7] -0.004 | IRAK-1-4 Inhibitor I 0.008

CEP120 (UniProt Q8N960)
inactive: erlotinib 0.044 | [1] -0.124 | [2] -0.03 | [3] -0.02 | [8] 0.004 | [4] -0.007 | [5] -0.142 | [6] 0.168 | [7] 0.215 | IRAK-1-4 Inhibitor I 0.018

CDK5 (UniProt Q00535)
inactive: erlotinib -0.018 | [1] -0.065 | [2] 0.126 | [3] -0.041 | [8] -0.023 | [4] 0.01 | [6] 0.367 | [7] 0.004 | IRAK-1-4 Inhibitor I 0.033

CEP55 (UniProt Q53EZ4)
inactive: erlotinib -0.08 | [1] -0.07 | [2] 0.028 | [3] -0.003 | [8] -0.073 | [4] 0.034 | [5] 0.062 | [6] 0.122 | [7] -0.046 | IRAK-1-4 Inhibitor I -0.013

CD97 (UniProt P48960)
inactive: erlotinib -0.018 | [1] 0.014 | [2] -0.022 | [3] -0.025 | [8] 0.005 | [4] -0.011 | [5] 0.055 | [6] -0.014 | [7] 0.027 | IRAK-1-4 Inhibitor I 0.024

CEP41 (UniProt Q9BYV8)
inactive: erlotinib -0.068 | [1] -0.125 | [2] 0.006 | [3] -0.007 | [8] 0.016 | [5] 0.019 | [6] -0.035 | [7] 0.03

CDK4 (UniProt P11802)
inactive: erlotinib -0.03 | [1] -0.094 | [2] -0.026 | [3] -0.028 | [8] 0 | [4] -0.008 | [5] 0.068 | [6] 0 | [7] 0.049 | IRAK-1-4 Inhibitor I -0.002

CDCA8 (UniProt Q53HL2)
inactive: erlotinib 0.112 | [1] 0.054 | [2] 0.009 | [3] -0.071 | [8] -0.12 | [5] -0.246 | [6] -0.01 | [7] -0.054

CD99L2 isoform 5 (UniProt Q8TCZ2)
inactive: erlotinib -0.018 | [1] -0.047 | [2] 0.063 | [3] 0.07 | [5] -0.197

CENPQ (UniProt Q7L2Z9)
inactive: erlotinib -0.064 | [1] -0.011 | [2] 0.057 | [3] 0.098 | [8] 0.078 | [4] 0.016 | [5] 0.033 | [6] -0.069 | [7] 0.111 | IRAK-1-4 Inhibitor I -0.012

CDC26 (UniProt Q8NHZ8)
inactive: erlotinib 0.035 | [1] 0.042 | [2] -0.03 | [3] -0.049 | [8] -0.063 | [4] 0.024 | [5] -0.003 | [6] 0.034 | [7] -0.002 | IRAK-1-4 Inhibitor I -0.018

CEP97 (UniProt Q8IW35)
inactive: erlotinib 0.031 | [1] 0.018 | [2] 0.001 | [3] 0.012 | [8] 0.001 | [4] 0.015 | [5] -0.065 | [6] 0.034 | [7] -0.03 | IRAK-1-4 Inhibitor I 0.002

Copied from above (10 entries):
CEP120 (UniProt Q8N960)
inactive: erlotinib 0.044 | [1] -0.124 | [2] -0.03 | [3] -0.02 | [8] 0.004 | [4] -0.007 | [5] -0.142 | [6] 0.168 | [7] 0.215 | IRAK-1-4 Inhibitor I 0.018

CDK5 (UniProt Q00535)
inactive: erlotinib -0.018 | [1] -0.065 | [2] 0.126 | [3] -0.041 | [8] -0.023 | [4] 0.01 | [6] 0.367 | [7] 0.004 | IRAK-1-4 Inhibitor I 0.033

CEP55 (UniProt Q53EZ4)
inactive: erlotinib -0.08 | [1] -0.07 | [2] 0.028 | [3] -0.003 | [8] -0.073 | [4] 0.034 | [5] 0.062 | [6] 0.122 | [7] -0.046 | IRAK-1-4 Inhibitor I -0.013

CD97 (UniProt P48960)
inactive: erlotinib -0.018 | [1] 0.014 | [2] -0.022 | [3] -0.025 | [8] 0.005 | [4] -0.011 | [5] 0.055 | [6] -0.014 | [7] 0.027 | IRAK-1-4 Inhibitor I 0.024

CEP41 (UniProt Q9BYV8)
inactive: erlotinib -0.068 | [1] -0.125 | [2] 0.006 | [3] -0.007 | [8] 0.016 | [5] 0.019 | [6] -0.035 | [7] 0.03

CDK4 (UniProt P11802)
inactive: erlotinib -0.03 | [1] -0.094 | [2] -0.026 | [3] -0.028 | [8] 0 | [4] -0.008 | [5] 0.068 | [6] 0 | [7] 0.049 | IRAK-1-4 Inhibitor I -0.002

CDCA8 (UniProt Q53HL2)
inactive: erlotinib 0.112 | [1] 0.054 | [2] 0.009 | [3] -0.071 | [8] -0.12 | [5] -0.246 | [6] -0.01 | [7] -0.054

CD99L2 isoform 5 (UniProt Q8TCZ2)
inactive: erlotinib -0.018 | [1] -0.047 | [2] 0.063 | [3] 0.07 | [5] -0.197

CENPQ (UniProt Q7L2Z9)
inactive: erlotinib -0.064 | [1] -0.011 | [2] 0.057 | [3] 0.098 | [8] 0.078 | [4] 0.016 | [5] 0.033 | [6] -0.069 | [7] 0.111 | IRAK-1-4 Inhibitor I -0.012

CDC26 (UniProt Q8NHZ8)
inactive: erlotinib 0.035 | [1] 0.042 | [2] -0.03 | [3] -0.049 | [8] -0.063 | [4] 0.024 | [5] -0.003 | [6] 0.034 | [7] -0.002 | IRAK-1-4 Inhibitor I -0.018

(next part)

CERT isoform 3 (UniProt Q9Y5P4)
inactive: erlotinib -0.004 | [1] -0.003 | [2] 0.008 | [3] 0.019 | [8] -0.018 | [4] -0.002 | [5] -0.008 | [6] 0.005 | [7] 0.019 | IRAK-1-4 Inhibitor I -0.018

CELSR2 (UniProt Q9HCU4)
inactive: erlotinib -0.2 | [2] -0.174

CEP85L isoform 4 (UniProt Q5SZL2)
inactive: erlotinib 0.067 | [1] 0.058 | [2] -0.137 | [3] -0.243 | [5] 0.184

CDV3 (UniProt Q9UKY7)
inactive: erlotinib -0.004 | [1] 0.047 | [2] -0.017 | [3] -0.014 | [8] 0.007 | [4] 0.016 | [5] 0.063 | [6] 0.024 | [7] 0.002 | IRAK-1-4 Inhibitor I -0.017

CD99 (UniProt P14209)
inactive: erlotinib -0.012 | [1] 0.084 | [2] 0.073 | [3] -0.134 | [4] 0.062 | [5] -0.113 | IRAK-1-4 Inhibitor I 0.033

CENPO (UniProt Q9BU64)
inactive: erlotinib -0.147 | [2] -0.062

— the supplement of paper PMC10849652
